Here are results for 78 compounds from the supplement of paper PMC11060735.

Several values for one entry are separate records, joined by “and”; a condition that tells them apart may be missing. Equal values may be shown once. Where a name gives a salt, the structure may show the parent alone. ± gives the standard deviation of the averaged measurements. The full ranking holds about 1,800 compounds; the median of “GFP- (p16Ink4a-) cell count relative to negative-control wells” is about 0.99, and the lowest 2% start at about 0.5. The list shows a part of the results.

The test has as its system mouse p16Ink4a+/- lung fibroblasts (INKBRITE, bleomycin-injured). Put plainly: GFP- (p16Ink4a-) cell count relative to negative-control wells (fold of vehicle); higher = more p16Ink4a- cells surviving. As to conditions: 1 µM; 3 days.
Turning to `COc1ccc(CNCc2cccc3ccccc23)cc1`, the GFP- was 1.11.

The compound `COC(=O)C1=C(C)N=C(C)/C(=C(/O)OC)C1c1ccccc1[N+](=O)[O-]` (stereo not drawn) [Nifedipine] displayed a GFP- of 1.09. For `CC(C)(C)NC[C@H](O)COc1nsnc1N1CCOCC1` [Timolol] the value was 1.22. For `COc1cc([C@H]2Oc3cc([C@H]4Oc5cc(O)cc(O)c5C(=O)[C@@H]4O)ccc3O[C@@H]2CO)ccc1O` [Silibinin A] the value was 1.12. In the case of `CCc1cc(C(N)=S)ccn1` [Ethionamide], the GFP- was determined as 1.06. For `C[C@@H]1O[C@@H](O[C@H]2[C@H](Oc3cc(O)c4c(c3)O[C@H](c3ccc(O)cc3)CC4=O)O[C@H](CO)[C@@H](O)[C@@H]2O)[C@H](O)[C@H](O)[C@H]1O` [Naringin] the value was 1.1; for `C/N=C(/NC#N)NCCSCc1[nH]cnc1C` [Cimetidine], 0.976. For `Nc1nccs1` [Aminothiazole] the value was 0.976; for `NC(=O)c1cccnc1` [Nicotinamide], 1.05. For `Fc1cc(-c2cccc3ncc(-c4cnn(C5CCNCC5)c4)nc23)cc(F)c1CN1CCOCC1` the value was 0.807 ± 0.094. As to `CN(C)CCC(CSc1ccccc1)Nc1ccc(S(=O)(=O)NC(=O)c2ccc(N3CCN(Cc4ccccc4-c4ccc(Cl)cc4)CC3)cc2)cc1[N+](=O)[O-]` (stereo not drawn), the GFP- stood at 0.89. For `O=C(NCC1CN(c2ccc(N3CCOCC3=O)cc2)C(=O)O1)c1ccc(Cl)s1` (stereo not drawn) [Rivaroxaban] the value was 1.06; for `CCCCN(Cc1ccc(C(=O)NO)cc1)C(=O)Nc1ccccc1` [Nexturastat A], 0.708 ± 0.068; for `CCCCCCCCCCCCCCCC[N+](C)(C)C` [Cetrimonium], 0.997. For `O=C1Cc2cc(CCN3CCN(c4nsc5ccccc45)CC3)c(Cl)cc2N1` [Ziprasidone Mesylate, Ziprasidone] the value was 1.09; for `COc1cc(Nc2c(C#N)cnc3cc(OCCCN4CCN(C)CC4)c(OC)cc23)c(Cl)cc1Cl` [Bosutinib], 0.893; for `CCC(C)(C)c1ccc(CC(C)CN2C[C@@H](C)O[C@@H](C)C2)cc1` (stereo partly drawn) [Amorolfine], 1.06.

`CS(=O)(=O)CCNCc1ccc(-c2ccc3ncnc(Nc4ccc(OCc5cccc(F)c5)c(Cl)c4)c3c2)o1` [Lapatinib] yielded a GFP- of 0.966. For `COC(c1ccccc1)(c1ccccc1)[C@H](Oc1nc(C)cc(C)n1)C(=O)O` [Ambrisentan] the value was 0.89; for `N#CC1(c2ccc(NC(=O)c3cccnc3NCc3ccncc3)cc2)CCCC1` [Apatinib], 0.961; for `O=c1c(-c2ccc(O)cc2)coc2cc(O)ccc12` [Daidzein], 1.04. In the case of `O=C(Nc1ncc(SCCN2CCCC2)s1)[C@]1(c2ccc(S(=O)(=O)C3CC3)cc2)C[C@H]1C1CCCCC1`, the GFP- worked out at 0.887.

`O=S(=O)(O)c1cc(O)ccc1O` [Ethamsylate] had a GFP- of 0.995. For `O=C(CSc1nc2c(c(=O)n1-c1ccccc1)SCC2)Nc1ccc(-c2ccccc2)cn1` the value was 0.987; for `CN[C@@H]1[C@H](O[C@H]2[C@H](O[C@H]3[C@H](O)[C@@H](O)[C@@H](N=C(N)N)[C@@H](O)[C@@H]3N=C(N)N)O[C@@H](C)[C@@]2(O)C=O)O[C@H](CO)[C@H](O)[C@H]1O` [Streptomycin sulfate], 1.2. For `CC(C)C[C@H](NC(=O)[C@@H]1O[C@H]1C(=O)O)C(=O)NCCCCN=C(N)N` the value was 0.915; for `NS(=O)(=O)c1cc2c(cc1Cl)NC(C(Cl)Cl)NS2(=O)=O` (stereo not drawn) [Trichlormethiazide], 1.03; for `C[C@@H]1CC(=O)NN=C1c1ccc(NN=C(C#N)C#N)cc1` [Levosimendan], 1.03. The compound `O=C(/C=C/c1ccccc1)NC(NC(=S)Nc1cccc2cccnc12)C(Cl)(Cl)Cl` (stereo not drawn) [Salubrinal] showed a GFP- of 1.09.

On to `CCCCOc1ccc(OCCCN2CCOCC2)cc1` [Pramocaine], for which the GFP- came out at 1.06.

In turn, `Cc1cc(NS(=O)(=O)c2ccc(N)cc2)no1` [Sulfamethoxazole] yielded a GFP- of 0.967. For `CC(/C=C1\SC(=S)N(CC(=O)O)C1=O)=C\c1ccccc1` [Epalrestat] the value was 0.978. For `COc1ccc(-c2cc(=O)c3c(O)cc(O[C@@H]4O[C@H](CO[C@@H]5O[C@@H](C)[C@H](O)[C@@H](O)[C@H]5O)[C@@H](O)[C@H](O)[C@H]4O)cc3o2)cc1O` [Diosmin] the value was 0.88. For `O=C(c1ccc(F)cc1)C1CCN(CCn2c(=O)[nH]c3ccccc3c2=O)CC1` [Ketanserin Tartrate] the value was 0.924; for `CCN(CC)CCOC(=O)C(c1ccccc1)c1ccccc1` [Adiphenine Hydrochloride], 1.18. Turning to `CC1(C)[C@@H](O[C@H]2O[C@H](C(=O)O)[C@@H](O)[C@H](O)[C@H]2O[C@@H]2O[C@H](C(=O)O)[C@@H](O)[C@H](O)[C@H]2O)CC[C@]2(C)[C@H]3C(=O)C=C4[C@@H]5C[C@@](C)(C(=O)O)CC[C@]5(C)CC[C@@]4(C)[C@]3(C)CC[C@@H]12` [Glycyrrhizin], the GFP- was 0.86 and 1.01. For `O=C(O)[C@]1(Cc2cccc(Nc3nccs3)n2)CC[C@@H](Oc2cccc(Cl)c2F)CC1`, the GFP- came out at 0.836 ± 0.086. For `C[C@H]1C[C@@H]2[C@H]([C@@H](O)C[C@@]3(C)[C@H]2CC[C@]3(O)C(=O)CO)[C@@]2(C)C=CC(=O)C=C12` [Methylprednisolone] the value was 0.847; for `Cc1nc(C#Cc2ccnc(Cl)c2)c(C)n1-c1ccc(OC(F)(F)F)cc1`, 1.02; for `Cc1nc(Nc2ncc(C(=O)Nc3c(C)cccc3Cl)s2)cc(N2CCN(CCO)CC2)n1` [Dasatinib], 0.662. For `O=S(=O)(O)CCSSCCS(=O)(=O)O` [Dimesna] the value was 1.05. As to `N#C[C@@H]1CCCN1C(=O)CNC12CC3CC(CC(O)(C3)C1)C2` [Vildagliptin], the GFP- was 1.04. For `CCCS(=O)(=O)Nc1ccc(F)c(C(=O)c2c[nH]c3ncc(Cl)cc23)c1F` the value was 0.94; for `C[C@@H]1C(=O)O[C@H]2CC34[C@H]5C[C@@H](C(C)(C)C)C36[C@@H](OC(=O)[C@@H]6O)O[C@@]4(C(=O)O5)[C@]21O` (stereo partly drawn) [Ginkgolide A], 1.01; for `COc1ccc(-c2ccc3cc(C(=O)O)ccc3c2)cc1C12CC3CC(CC(C3)C1)C2` [Adapalene], 1.05. For the compound `Cc1ncc(-c2ccnc(Nc3ccc(S(C)(=O)=O)cc3)n2)n1C(C)C`, the GFP- was found to be 0.878. For `O=C(Nc1c[nH]nc1-c1nc2cc(CN3CCOCC3)ccc2[nH]1)NC1CC1` the value was 0.627 ± 0.12. Regarding `CCN(CC)C(=O)[C@]1(c2ccccc2)C[C@@H]1CN` [Milnacipran], the GFP- turned out to be 1. As for `Cc1cccc(-c2nn3c(c2-c2ccnc4ccc(C(N)=O)cc24)CCC3)n1`, the GFP- worked out at 1.25. For `N#C/C(=C1/SC[C@@H](c2ccc(Cl)cc2Cl)S1)n1ccnc1` [Luliconazole] the value was 1.03; for `CNCc1cc(-c2ccccc2F)n(S(=O)(=O)c2cccnc2)c1`, 0.899; for `Cc1nc(-c2ccc(OCC(C)C)c(C#N)c2)sc1C(=O)O` [Febuxostat], 0.877. For `Cn1c(=O)cc(N2CCC[C@@H](N)C2)n(Cc2ccccc2C#N)c1=O` [Alogliptin] the value was 0.943; for `CC(C)N(CC[C@H](c1ccccc1)c1cc(CO)ccc1O)C(C)C` [5-hydroxymethyl Tolterodine], 0.955. For `Nc1ccccc1NC(=O)c1ccc(CNC(=O)OCc2cccnc2)cc1` [Entinostat] the value was 0.641 ± 0.022; for `CN(C)CCC[C@@]1(c2ccc(F)cc2)OCc2cc(C#N)ccc21` [Citalopram], 0.97. Take `O=C(Nc1ccc(S(=O)(=O)Nc2ccccc2Cl)c(Cl)c1)c1ccccn1`: the GFP- was found to be 1.12.

For `CCc1c2c(nc3ccc(O)cc13)-c1cc3c(c(=O)n1C2)COC(=O)[C@]3(O)CC`, the GFP- amounted to 0.749.

The compound `CCCc1nc2c(C)cc(-c3nc4ccccc4n3C)cc2n1Cc1ccc(-c2ccccc2C(=O)O)cc1` [Telmisartan] gave a GFP- of 1.04. For `C=C1C(n2cnc3c(O)nc(N)nc32)C[C@H](O)[C@H]1CO` (stereo partly drawn) [Entecavir Hydrate] the value was 0.958; for `Clc1ccc(C(c2ccccc2Cl)C(Cl)Cl)cc1` (stereo not drawn) [Mitotane], 1.14. For `CCCNCC(O)COc1ccccc1C(=O)CCc1ccccc1` (stereo not drawn) [Propafenone] the value was 1.07.

`CCCN(CCC)CCc1cccc2c1CC(=O)N2` [Ropinirole]: the GFP- was 1. For `CC(C)c1ccc(NC(=O)Cn2cnc3c2c(=O)n(C)c(=O)n3C)cc1` the value was 0.98; for `CNC(=O)c1ccccc1Sc1ccc2c(/C=C/c3ccccn3)[nH]nc2c1` [Axitinib], 0.863; for `C=CC/N=C1\C(=O)C=C2NC(=O)/C(C)=C/C=C\[C@H](OC)[C@@H](OC(N)=O)/C(C)=C/[C@H](C)[C@@H](O)[C@@H](OC)C[C@H](C)CC1=C2O` [Tanespimycin], 0.728. Consider `CCCC(CCC)C(=O)O` [Valproic Acid], for which the GFP- was 0.982 and 1.05. For `Nc1nc(Cl)nc2c1ncn2[C@@H]1O[C@H](CO)[C@@H](O)[C@@H]1F` [Clofarabine] the value was 1.02. `CNC(=O)Nc1ccc(-c2nc(N3CC4CCC(C3)O4)c3cnn(C4CCC5(CC4)OCCO5)c3n2)cc1`: the GFP- amounted to 0.566.

`CCn1cc(C(=O)O)c(=O)c2cc(F)c(N3CCN(C)CC3)cc21` [Pefloxacin] came in with a GFP- of 0.947.

Compound `CCOC(=O)Nc1cc(-c2ccc(C)c(NS(C)(=O)=O)c2)nn2c(C)nnc12` [Bromosporine] displayed a GFP- of 0.936 ± 0.036.

Compound `CC(C)[C@H](C(=O)Nc1ccc(C(=O)NO)cc1)c1ccccc1` had a GFP- of 0.563 ± 0.035. For `O=C1NC(=O)C(c2ccccc2[N+](=O)[O-])=C1Nc1ccc(O)c(Cl)c1` the value was 1.13; for `CCN(CCCc1ccccc1)CCCc1ccccc1` [Alverine], 1.03. For `COc1ccc(C(=O)Nc2sc3c(c2C(N)=O)CCCC3)cc1OC` the value was 1.02; for `C=C1CC[C@H](O)C/C1=C/C=C1\CCC[C@]2(C)[C@@H]([C@H](C)CCCC(C)(C)O)CC[C@@H]12` [Calcidiol], 1.2. For `Cc1c(N(C)C)c(=O)n(-c2ccccc2)n1C` [Aminophenazone] the value was 0.979; for `Clc1ccc(Nc2nnc(Cc3ccncc3)c3ccccc23)cc1` [Vatalanib], 0.918.
